Data taken from publication PMC9105235.
These are yes or no findings as the source states them, for the method shown. Binding seen in cells or lysates may run through a third protein. Here binding means that the protein was enriched with, or labelled near, the bait; the list need not be complete.

Legend:
[1] = target: PrC-CUL3-∆9 (human) (UniProt Q13618); experiment: affinity purification with mass spectrometry; PrC-CUL3-WT or PrC-CUL3-∆9 precipitated with HPC4-sepharose overnight at 4 °C from lysates of tetracycline-induced Flp-In T-REx 293 cells (50 mM HEPES pH 7.5, 150 mM NaCl, 0.5% Nonidet P-40, 2 mM CaCl2); label-free LC-MS/MS, two independent experiments, empty vector as control
[2] = target: PrC-CUL3-WT (human) (UniProt Q13618); experiment: as above

Row | binding [1] | binding [2] | Binder
1 | binds | binds | BTBD1 (protein, UniProt Q9H0C5 1-482) MASLGPAAAGEQASGAEAEPGPAGPPPPPSPSSLGPLLPLQREPLYNWQATKASLKERFAFLFNSELLSDVRFVLGKGRGAAAAGGPQRIPAHRFVLAAGSAVFDAMFNGGMATTSAEIELPDVEPAAFLALLRFLYSDEVQIGPETVMTTLYTAKKYAVPALEAHCVEFLTKHLRADNAFMLLTQARLFDEPQLASLCLDTIDKSTMDAISAEGFTDIDIDTLCAVLERDTLSIRESRLFGAVVRWAEAECQRQQLPVTFGNKQKVLGKALSLIRFPLMTIEEFAAGPAQSGILSDREVVNLFLHFTVNPKPRVEYIDRPRCCLRGKECCINRFQQVESRWGYSGTSDRIRFTVNRRISIVGFGLYGSIHGPTDYQVNIQIIEYEKKQTLGQNDTGFSCDGTANTFRVMFKEPIEILPNVCYTACATLKGPDSHYGTKGLKKVVHETPAASKTVFFFFSSPGNNNGTSIEDGQIPEIIFYT
2 | binds | binds | ZBTB10 (protein, UniProt Q96DT7 1-871) MSFSEMNRRTLAFRGGGLVTASGGGSTNNNAGGEASAWPPQPQPRQPPPPAPPALQPPNGRGADEEVELEGLEPQDLEASAGPAAGAAEEAKELLLPQDAGGPTSLGGGAGGPLLAERNRRTLAFRGGGGGGLGNNGSSRGRPETSVWPLRHFNGRGPATVDLELDALEGKELMQDGASLSDSTEDEEEGASLGDGSGAEGGSCSSSRRSGGDGGDEVEGSGVGAGEGETVQHFPLARPKSLMQKLQCSFQTSWLKDFPWLRYSKDTGLMSCGWCQKTPADGGSVDLPPVGHDELSRGTRNYKKTLLLRHHVSTEHKLHEANAQESEIPSEEGYCDFNSRPNENSYCYQLLRQLNEQRKKGILCDVSIVVSGKIFKAHKNILVAGSRFFKTLYCFSNKESPNQNNTTHLDIAAVQGFSVILDFLYSGNLVLTSQNAIEVMTVASYLQMSEVVQTCRNFIKDALNISIKSEAPESVVVDYNNRKPVNRDGLSSSRDQKIASFWATRNLTNLASNVKIENDGCNVDEGQIENYQMNDSSWVQDGSPEMAENESEGQTKVFIWNNMGSQGIQETGKTRRKNQTTKRFIYNIPPNNETNLEDCSVMQPPVAYPEENTLLIKEEPDLDGALLSGPDGDRNVNANLLAEAGTSQDGGDAGTSHDFKYGLMPGPSNDFKYGLIPGTSNDFKYGLIPGASNDFKYGLLPESWPKQETWENGESSLIMNKLKCPHCSYVAKYRRTLKRHLLIHTGVRSFSCDICGKLFTRREHVKRHSLVHKKDKKYKCMVCKKIFMLAASVGIRHGSRRYGVCVDCADKSQPGGQEGVDQGQDTEFPRDEEYEENEVGEADEELVDDGEDQNDPSRWDESGEVCMSLDD
3 | binds | binds | KLHL24 (protein, UniProt Q6TFL4 1-600) MVLILGRRLNREDLGVRDSPATKRKVFEMDPKSLTGHEFFDFSSGSSHAENILQIFNEFRDSRLFTDVIICVEGKEFPCHRAVLSACSSYFRAMFCNDHRESREMLVEINGILAEAMECFLQYVYTGKVKITTENVQYLFETSSLFQISVLRDACAKFLEEQLDPCNCLGIQRFADTHSLKTLFTKCKNFALQTFEDVSQHEEFLELDKDELIDYICSDELVIGKEEMVFEAVMRWVYRAVDLRRPLLHELLTHVRLPLLHPNYFVQTVEVDQLIQNSPECYQLLHEARRYHILGNEMMSPRTRPRRSTGYSEVIVVVGGCERVGGFNLPYTECYDPVTGEWKSLAKLPEFTKSEYAVCALRNDILVSGGRINSRDVWIYNSQLNIWIRVASLNKGRWRHKMAVLLGKVYVVGGYDGQNRLSSVECYDSFSNRWTEVAPLKEAVSSPAVTSCVGKLFVIGGGPDDNTCSDKVQSYDPETNSWLLRAAIPIAKRCITAVSLNNLIYVAGGLTKAIYCYDPVEDYWMHVQNTFSRQENCGMSVCNGKIYILGGRRENGEATDTILCYDPATSIITGVAAMPRPVSYHGCVTIHRYNEKCFKL
